Laboratory results reported in patent US20110171242A1.
No constants are given. Whether binding was seen depends on the method and setting. Some results given as binding are weak or reduced against the parent protein; the word gives no strength.

Chains of the proteins cited; added tags and fusions are not shown. Residues count along the entry.
UniProt P19438, residues 30-211: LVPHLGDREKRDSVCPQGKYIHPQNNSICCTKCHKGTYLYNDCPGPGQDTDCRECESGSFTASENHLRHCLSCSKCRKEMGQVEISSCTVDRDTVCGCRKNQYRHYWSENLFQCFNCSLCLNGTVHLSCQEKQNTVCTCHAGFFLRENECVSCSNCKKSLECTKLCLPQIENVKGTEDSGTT

Assays:
[1] = target: T1, LTα homotrimer (UniProt P01374); test: 2D electrophoresis of proteins bound to TNFR60:Fc
T1 sequence (looked up): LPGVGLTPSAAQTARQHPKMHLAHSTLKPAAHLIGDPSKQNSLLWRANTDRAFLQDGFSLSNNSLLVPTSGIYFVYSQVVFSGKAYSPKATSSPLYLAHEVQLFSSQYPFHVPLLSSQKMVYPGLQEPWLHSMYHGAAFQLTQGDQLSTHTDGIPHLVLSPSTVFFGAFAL

[2] = target: T1, LTα homotrimer; test: successive TNFR60:Fc and HVEM:Fc affinity steps
[3] = target: T1, LTα homotrimer; test: affinity purification from 35S-labelled II-23.D7 extract, 2D electrophoresis
[4] = target: T1, LTα homotrimer; test: precipitation of 35S-labelled proteins with receptor:Fc and protein G, SDS-PAGE

Measured: binding

TNFR60:Fc (from UniProt P19438 30-211) (Fc fusion)
binds: all assays above
